Measured data: PubChem BioAssay AID1053209 (Peter MacCallum Cancer Centre, 2014)

- Test: 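Knock-downs that sensitise mouse osteosarcoma cells to doxorubicin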 (follow-up of hits)
- Cells: mouse primary osteosarcoma cells
- Reagent: single siRNA against mouse genes, 25 nM (text also states 40 nM)
- Duration: about 120 h (48 h before drug, then 72 h with drug)
- Conditions: doxorubicin 100 nM (about IC30-40), added 48 h after transfection, for 72 h
- Read-out: 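Viability measured by ATP luminescence with and without doxorubicin, each replicate scaled to non-targeting siRNA NT1, averaged over two replicates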
- Direction: viability with doxorubicin, vs NT1: higher = more viable cells under doxorubicin; viability ratio, doxorubicin over no drug: higher = less sensitisation to doxorubicin; viability without drug, vs NT1: higher = more viable cells without drug
- Active means: 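Counted as active (class LC dox) if viability falls to 0.7 of NT1 or below under doxorubicin but stays within 0.7 to 1.1 without drug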
In all, the deposit lists about 1,580 reagents; this is a random part of them. In the full data, 207 (13%) are marked active. 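Rows are single siRNAs; four siRNAs per gene were tested, a gene counting as confirmed only when at least two agree.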

target	PubChem SID	combined effect class	viability with doxorubicin, vs NT1	viability ratio, doxorubicin over no drug	viability without drug, vs NT1	outcome
Slc19a3	SID152262359	normal viability with and without drug	0.74	0.92	0.8	inactive
Slc19a3	SID152272244	normal viability with and without drug	0.98	0.93	1.05	inactive
Slc19a3	SID152276754	low viability only with doxorubicin; normal without drug	0.65	0.79	0.82	active
Slc19a3	SID152305103	normal viability with and without drug	1.05	0.96	1.09	inactive
Rps7	SID152312046	low viability with and without drug	0.42	0.81	0.52	inactive
Rps7	SID152316338	low viability with and without drug	0.33	1	0.33	inactive
Rps7	SID152318976	low viability with and without drug	0.37	0.92	0.4	inactive
Rps7	SID152335247	low viability with and without drug	0.32	0.94	0.34	inactive
Dennd2c	SID152274680	normal viability with and without drug	1.03	1.01	1.02	inactive
Dennd2c	SID152277959	normal viability with and without drug	0.98	0.96	1.02	inactive
Dennd2c	SID152297383	normal viability with and without drug	1.07	0.99	1.08	inactive
Dennd2c	SID152323523	normal viability with and without drug	0.9	0.87	1.04	inactive
Sart1	SID152264672	low viability only with doxorubicin; normal without drug	0.54	0.75	0.72	active
Sart1	SID152274732	low viability with and without drug	0.48	0.73	0.66	inactive
Sart1	SID152276749	normal viability with and without drug	0.82	0.91	0.9	inactive
Sart1	SID152305459	normal viability with and without drug	0.8	0.87	0.92	inactive
Copg1	SID152263654	low viability with and without drug	0.44	0.63	0.7	inactive
Copg1	SID152277768	low viability only with doxorubicin; normal without drug	0.6	0.68	0.88	active
Copg1	SID152316377	low viability only with doxorubicin; normal without drug	0.33	0.46	0.71	active
Copg1	SID152341640	low viability only with doxorubicin; normal without drug	0.6	0.74	0.81	active

Called active, of those listed so far:
target	PubChem SID	combined effect class	viability with doxorubicin, vs NT1	viability ratio, doxorubicin over no drug	viability without drug, vs NT1	outcome
Slc19a3	SID152276754	low viability only with doxorubicin; normal without drug	0.65	0.79	0.82	active
Sart1	SID152264672	low viability only with doxorubicin; normal without drug	0.54	0.75	0.72	active
Copg1	SID152277768	low viability only with doxorubicin; normal without drug	0.6	0.68	0.88	active
Copg1	SID152316377	low viability only with doxorubicin; normal without drug	0.33	0.46	0.71	active
Copg1	SID152341640	low viability only with doxorubicin; normal without drug	0.6	0.74	0.81	active

The results go on.
target	PubChem SID	combined effect class	viability with doxorubicin, vs NT1	viability ratio, doxorubicin over no drug	viability without drug, vs NT1	outcome
Cdc45	SID152275123	low viability only with doxorubicin; normal without drug	0.41	0.56	0.73	active
Cdc45	SID152297677	normal viability with and without drug	0.77	0.92	0.84	inactive
Cdc45	SID152327849	normal viability with and without drug	1.08	1.09	0.99	inactive
Cdc45	SID152334797	normal viability with and without drug	1.04	1.04	1	inactive
Lrp2bp	SID152287102	high viability only without drug	0.92	0.81	1.14	inactive
Lrp2bp	SID152294404	normal viability with and without drug	0.92	0.9	1.02	inactive
Lrp2bp	SID152298422	normal viability with and without drug	0.73	0.79	0.92	inactive
Lrp2bp	SID152340120	normal viability with and without drug	1.01	0.97	1.04	inactive
Apobec1	SID152276751	normal viability with and without drug	1	1	1	inactive
Apobec1	SID152312499	high viability only with doxorubicin	1.14	1.14	1	inactive
Apobec1	SID152333327	normal viability with and without drug	1	1.04	0.96	inactive
Apobec1	SID193126352	normal viability with and without drug	1.02	0.96	1.06	inactive
Fam13c	SID152259437	normal viability with and without drug	0.94	0.9	1.04	inactive
Fam13c	SID152294499	high viability with and without drug	1.12	1	1.12	inactive
Fam13c	SID152300087	normal viability with and without drug	0.91	0.98	0.93	inactive
Fam13c	SID152301921	normal viability with and without drug	1.03	0.99	1.04	inactive
Ccdc178	SID152281549	low viability only with doxorubicin; normal without drug	0.6	0.73	0.82	active
Ccdc178	SID152291278	high viability only with doxorubicin	1.14	1.12	1.02	inactive
Ccdc178	SID152300550	normal viability with and without drug	0.98	0.98	1	inactive
Ccdc178	SID152301440	normal viability with and without drug	0.86	0.91	0.94	inactive
